PubChem BioAssay AID743121, NCATS – 2013

- Aim: 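Knock-downs that sensitise breast cancer cells to camptothecin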 (primary screen)
- System: MDA-MB-231 cells, a human breast cancer line
- Knock-down reagent: single siRNA against human genes, 20 nM siRNA (0.8 pmol per well)
- Duration: 120 h (drug added 48 h after transfection, read 72 h later)
- Challenge: camptothecin 20 nM (about EC30) for 72 h; vehicle 0.1% DMSO in parallel plates
- Measured: 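Cell viability by ATP luminescence (CellTiter-Glo) as % of non-targeting siRNA wells, and the log2 ratio of viability without drug over viability with camptothecin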
- Direction: log2 vehicle/camptothecin viability: higher = stronger sensitisation to camptothecin; viability with camptothecin: higher = more viable cells
- Units: viability with camptothecin in % of control
- Call rule: 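Each gene scored by redundant siRNA activity (RSA) over its individual siRNA ratios; a gene is called active at p < 0.001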
The whole screen tested about 26,000 reagents; this is a part drawn at random. 167 of them (0.63%) count as active. 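Calls are per gene from RSA p-values that are not deposited; an individual active-marked siRNA can sensitise only weakly.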 A number with no mark means an inactive call. The numbers tell different reagents against one gene apart. Further read-outs or replicates are left out here. No sequences are given here.

For CHRM2 (GeneID 1129) #1 the deposit lists log2 vehicle/camptothecin viability 0.311; viability with camptothecin 21.3. Depletion of CHRM2 (GeneID 1129) #2 came out at: log2 vehicle/camptothecin viability -0.218; viability with camptothecin 85.8. Depletion of CHRM2 (GeneID 1129) #3 gave: log2 vehicle/camptothecin viability -0.649; viability with camptothecin 46.6. Knock-down of CHRM2 (GeneID 1129) #4 gave: log2 vehicle/camptothecin viability -0.326; viability with camptothecin 46.5. Depletion of TTBK1 (GeneID 84630) #1 gave: log2 vehicle/camptothecin viability -0.221; viability with camptothecin 79.1. TTBK1 (GeneID 84630) #2 gave log2 vehicle/camptothecin viability 0.0844; viability with camptothecin 74.1.

TTBK1 (GeneID 84630) #3 gave log2 vehicle/camptothecin viability -0.539; viability with camptothecin 71.7. Depletion of TTBK1 (GeneID 84630) #4 gave: log2 vehicle/camptothecin viability -0.196; viability with camptothecin 110. DSCAML1 (GeneID 57453) #1 scored log2 vehicle/camptothecin viability -0.163; viability with camptothecin 110. Knock-down of DSCAML1 (GeneID 57453) #2 came out at: log2 vehicle/camptothecin viability -0.00528; viability with camptothecin 74.5. DSCAML1 (GeneID 57453) #3 scored log2 vehicle/camptothecin viability -0.208; viability with camptothecin 30.5. With knock-down of DSCAML1 (GeneID 57453) #4 the results were log2 vehicle/camptothecin viability -0.316; viability with camptothecin 71.9.

Silencing of ASCL1 (GeneID 429) #1 gave: log2 vehicle/camptothecin viability -0.778; viability with camptothecin 67.3. Silencing of ASCL1 (GeneID 429) #2 gave: log2 vehicle/camptothecin viability -0.474; viability with camptothecin 70.7. ASCL1 (GeneID 429) #3 gave log2 vehicle/camptothecin viability -0.0366; viability with camptothecin 110. ASCL1 (GeneID 429) #4 scored log2 vehicle/camptothecin viability -0.135; viability with camptothecin 113. After knock-down of RAB1A (GeneID 5861) #1, the record shows log2 vehicle/camptothecin viability -0.378; viability with camptothecin 56.6. Against RAB1A (GeneID 5861) #2, the values are log2 vehicle/camptothecin viability 0.418; viability with camptothecin 34.4.

For RAB1A (GeneID 5861) #3, the values are log2 vehicle/camptothecin viability -0.279; viability with camptothecin 124. RAB1A (GeneID 5861) #4 gave log2 vehicle/camptothecin viability -0.0951; viability with camptothecin 104. Against CYP2D7 (GeneID 1564) #1, the entry reads log2 vehicle/camptothecin viability -0.0848; viability with camptothecin 94.7. Against CYP2D7 (GeneID 1564) #2 the deposit lists log2 vehicle/camptothecin viability -0.196; viability with camptothecin 119. CYP2D7 (GeneID 1564) #3 showed log2 vehicle/camptothecin viability 0.153; viability with camptothecin 96. For CYP2D7 (GeneID 1564) #4, the entry reads log2 vehicle/camptothecin viability -0.244; viability with camptothecin 71.7.

Depletion of CYP2D7 (GeneID 1564) #5 gave: log2 vehicle/camptothecin viability -0.674; viability with camptothecin 98.1. Against RHBDD3 (GeneID 25807) #1, the entry reads log2 vehicle/camptothecin viability -0.191; viability with camptothecin 69.4. RHBDD3 (GeneID 25807) #2 scored log2 vehicle/camptothecin viability -0.0889; viability with camptothecin 111. RHBDD3 (GeneID 25807) #3 scored log2 vehicle/camptothecin viability -0.0656; viability with camptothecin 104. RHBDD3 (GeneID 25807) #4 showed log2 vehicle/camptothecin viability 0.0372; viability with camptothecin 90.5. Knock-down of ABCB11 (GeneID 8647) #1 came out at: log2 vehicle/camptothecin viability -0.473; viability with camptothecin 112.

Against ABCB11 (GeneID 8647) #2 the deposit lists log2 vehicle/camptothecin viability -0.00272; viability with camptothecin 60.7. Silencing of ABCB11 (GeneID 8647) #3 came out at: log2 vehicle/camptothecin viability -0.38; viability with camptothecin 117. ABCB11 (GeneID 8647) #4 showed log2 vehicle/camptothecin viability 0.0569; viability with camptothecin 89.9. With knock-down of GPR6 (GeneID 2830) #1, the record shows log2 vehicle/camptothecin viability -0.123; viability with camptothecin 89.6. Against GPR6 (GeneID 2830) #2, the entry reads log2 vehicle/camptothecin viability -0.293; viability with camptothecin 76. For GPR6 (GeneID 2830) #3 the deposit lists log2 vehicle/camptothecin viability -0.631; viability with camptothecin 70.6.

GPR6 (GeneID 2830) #4 scored log2 vehicle/camptothecin viability 0.166; viability with camptothecin 23.7.

Targets above whose gene name begins with D or d (4):
DSCAML1 (GeneID 57453) #1 — log2 vehicle/camptothecin viability = -0.163; viability with camptothecin = 110
DSCAML1 (GeneID 57453) #2 — log2 vehicle/camptothecin viability = -0.00528; viability with camptothecin = 74.5
DSCAML1 (GeneID 57453) #3 — log2 vehicle/camptothecin viability = -0.208; viability with camptothecin = 30.5
DSCAML1 (GeneID 57453) #4 — log2 vehicle/camptothecin viability = -0.316; viability with camptothecin = 71.9
